# Results deposited as PubChem BioAssay AID504793 (Drosophila RNAi Screening Center, 2011).
# Purpose: 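Whole-genome screen for parts of the DNA damage checkpoint at G2/M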 (primary screen)
# Cell system: Drosophila S2R+ cells
# Knock-down reagent: long dsRNA against Drosophila genes, about 0.25 µg dsRNA per well
# Duration: 4 days of dsRNA, then 4 hours of drug before read-out
# Treatment: doxorubicin 0.5 µM for 4 hours to cause double-strand breaks, in cells also given a low, harmless dose of dsRNA against nbs to sensitise the assay
# Read-out: 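Per-well count of mitotic cells stained for phospho-histone H3 after doxorubicin exposure, used as mitotic index; counts are raw and not normalised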
# Direction: mitotic cells: higher = more cells in mitosis, weaker G2 arrest
# Hit rule: 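a call needs confirmation in secondary tests, with other dsRNAs and a check of mitotic timing without damage, not just a high primary count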
# Calls: active = confirmed in follow-up tests; inactive = not confirmed
# The deposit covers about 23,000 reagents; this is a random part of those that have a named target and a result. In the full data, 62 (0.27%) were called active. 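Calls come from follow-up tests whose scores are not deposited, so confirmed genes may have low counts here; counts are not normalised per plate.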 The raw values are shown without normalisation. Reagents against one gene are numbered here. A plus sign joins genes that one reagent is predicted to hit. Reagent sequences are not shown.
target,dsRNA no.,"mitotic cells, replicate 1","mitotic cells, replicate 2",outcome
maca (GeneID 41892),1,5,,inactive
CG12116 (GeneID 31782),1,14,,inactive
dan (GeneID 43023),1,7,,inactive
dan (GeneID 43023),2,6,,inactive
BaraA1 + BaraA2,1,3,,inactive
Npc2e (GeneID 326136),1,6,,inactive
Npc2e (GeneID 326136),2,6,,inactive
Mnn1 (GeneID 33991),1,11,,inactive
Atg10 (GeneID 50253),1,6,,inactive
ave (GeneID 246638),1,6,,inactive
ave (GeneID 246638),2,4,,inactive
lectin-21Ca (GeneID 53552),1,6,,inactive
CG1724 (GeneID 33097),1,3,,inactive
CG1724 (GeneID 33097),2,7,,inactive
CG15082 (GeneID 37173),1,9,,inactive
CG15082 (GeneID 37173),2,6,,inactive
Hn (GeneID 38871),1,10,,inactive
Non1 (GeneID 35963),1,14,,inactive
Samtor (GeneID 37934),1,5,,inactive
Samtor (GeneID 37934),2,9,,inactive
CG14132 (GeneID 50290),1,4,,inactive
CG5890 (GeneID 43126),1,4,,inactive
CG14302 (GeneID 42252),1,11,,inactive
Ref1 (GeneID 44029),1,5,11,inactive
Ref1 (GeneID 44029),2,7,,inactive
RpS4 (GeneID 39484),1,,,inactive
scro (GeneID 3355151),1,11,,inactive
CG14696 (GeneID 41317),1,1,,inactive
CG12945 (GeneID 41204),1,4,,inactive
Tsp42Ee (GeneID 35614),1,9,,inactive
Tsp42Ee (GeneID 35614),2,6,,inactive
Dpck (GeneID 40846),1,4,,inactive
by (GeneID 41144),1,3,,inactive
by (GeneID 41144),2,7,,inactive
CG16989 (GeneID 31026),1,9,,inactive
CG16989 (GeneID 31026),2,6,,inactive
bru3 (GeneID 39527),1,8,,inactive
bru3 (GeneID 39527),2,6,,inactive
bru3 (GeneID 39527),3,6,,inactive
bru3 (GeneID 39527),4,5,,inactive
bru3 (GeneID 39527),5,6,,inactive
CG32572 (GeneID 32657),1,13,,inactive
CG32572 (GeneID 32657),2,6,,inactive
CG32572 (GeneID 32657),3,,,inactive
Hakai (GeneID 35256),1,8,,inactive
beta4GalNAcTA (GeneID 36585),1,7,,inactive
Top3alpha (GeneID 35236),1,7,,inactive
CG13585 (GeneID 37918),1,1,,inactive
CG3626 (GeneID 31377),1,9,,inactive
CG3626 (GeneID 31377),2,14,,inactive
CG14391 (GeneID 41567),1,4,,inactive
CG14391 (GeneID 41567),2,11,,inactive
alpha-Est6 (GeneID 40902),1,14,,inactive
CG15140 (GeneID 5740546),1,6,,inactive
CG5172 (GeneID 32711),1,12,,inactive
CG5172 (GeneID 32711),2,4,,inactive
Etfb (GeneID 43515),1,6,,inactive
flfl (GeneID 41675),1,16,,inactive
CG4021 (GeneID 37484),1,8,,inactive
CG4021 (GeneID 37484),2,9,,inactive
Dh44 (GeneID 41170),1,1,,inactive
Dh44 (GeneID 41170),2,4,,inactive
p38a (GeneID 42866),1,15,,inactive
CG12990 (GeneID 32747),1,2,,inactive
CG12239 (GeneID 31509),1,7,,inactive
CG12239 (GeneID 31509),2,4,,inactive
Adgf-A (GeneID 39976),1,10,,inactive
Adgf-A (GeneID 39976),2,6,,inactive
Ir100a (GeneID 43753),1,17,,inactive
Ir100a (GeneID 43753),2,2,,inactive
CheB53a (GeneID 3346205),1,11,,inactive
vnc + CG42455,1,7,,inactive
Bap170 (GeneID 35560),1,5,,inactive
Bap170 (GeneID 35560),2,8,,inactive
Bap170 (GeneID 35560),3,12,,inactive
CG31517 (GeneID 251711),1,10,,inactive
Ser12 (GeneID 33406),1,6,,inactive
CG34428 (GeneID 5740867),1,1,,inactive
CG11227 (GeneID 33071),1,17,,inactive
CG11227 (GeneID 33071),2,6,,inactive
moon (GeneID 32176),1,13,,inactive
Arp53D (GeneID 36879),1,4,,inactive
CG14298 (GeneID 42259),1,10,,inactive
TwdlQ (GeneID 43214),1,13,,inactive
TwdlQ (GeneID 43214),2,7,,inactive
CG7080 (GeneID 42609),1,6,,inactive
CG7080 (GeneID 42609),2,7,,inactive
CG30467 (GeneID 36719),1,6,,inactive
CG9330 (GeneID 40131),1,9,,inactive
CG9330 (GeneID 40131),2,2,,inactive
Mur29B (GeneID 319014),1,3,,inactive
Mur29B (GeneID 319014),2,7,,inactive
CG33159 (GeneID 318901),1,11,,inactive
Gr22e (GeneID 117498),1,5,,inactive
GLaz (GeneID 36447),1,12,,inactive
Tret1-2 (GeneID 36249),1,4,,inactive
Tret1-2 (GeneID 36249),2,7,,inactive
r + CG13012,1,13,,inactive
Ercc1 (GeneID 36654),1,6,,inactive
CG7215 + Prx5,1,5,,inactive
CG7215 + Prx5,2,8,,inactive
Mipp1 (GeneID 39841),1,7,,inactive
beta4GalNAcTB (GeneID 43425),1,10,,inactive
CG6012 (GeneID 35022),1,5,,inactive
SdhAL (GeneID 39348),1,2,,inactive
mRpL42 (GeneID 36050),1,5,,inactive
mthl5 (GeneID 41438),1,3,,inactive
mkg-p + Tpt,1,10,,inactive
CG15754 (GeneID 32307),1,11,,inactive
CG15754 (GeneID 32307),2,7,,inactive
CG7182 (GeneID 38944),1,2,,inactive
CG7182 (GeneID 38944),2,6,,inactive
CG14757 (GeneID 35797),1,6,,inactive
CG14757 (GeneID 35797),2,10,,inactive
Dop1R1 (GeneID 41726),1,5,,inactive
Dop1R1 (GeneID 41726),2,4,,inactive
Dop1R1 (GeneID 41726),3,7,,inactive
CG14431 (GeneID 31639),1,12,,inactive
CG14431 (GeneID 31639),2,3,,inactive
Tak1 (GeneID 39659),1,3,,inactive
Tak1 (GeneID 39659),2,9,,inactive
Tak1 (GeneID 39659),3,2,,inactive
CG2901 (GeneID 31338),1,13,,inactive
RhoGAP19D (GeneID 33048),1,4,,inactive
RhoGAP19D (GeneID 33048),2,9,,inactive
Cyp318a1 (GeneID 32172),1,19,,inactive
CG42685 (GeneID 34854),1,7,13,inactive
l(1)G0004 (GeneID 33033),1,5,,inactive
CG14655 (GeneID 40594),1,14,,inactive
CG14655 (GeneID 40594),2,5,,inactive
CG16711 (GeneID 39135),1,8,,inactive
CG16711 (GeneID 39135),2,15,,inactive
Bhmt (GeneID 35153),1,5,,inactive
Bhmt (GeneID 35153),2,5,,inactive
CG16956 (GeneID 34760),1,2,,inactive
PolE2 (GeneID 38661),1,9,,inactive
CG7968 (GeneID 34802),1,4,,inactive
nmo (GeneID 38890),1,8,,inactive
nmo (GeneID 38890),2,7,,inactive
nmo (GeneID 38890),3,7,,inactive
